Measurements from patent EP0868429 (dated 2002).
Strings that start with PEPTIDE1 are HELM notation: dots part the residues, brackets hold end groups and non-standard residues.

Test: general procedure: Fmoc solid-phase peptide synthesis; chloromethylated, hydroxymethylated, BHA or p-Me-BHA resin
Details: whole synthesis, HPLC

Row | Substance | purity (crude or final not stated)
1 | PEPTIDE1{[GAB].[dMrp].[dMrp].F.K.[am]}$$$$V2.0 | 98.0%
2 | PEPTIDE1{[GAB].[dMrp].[dMrp].[Mrp].K.[am]}$$$$V2.0 | 98.0%
